Measured values taken from publication PMC12040169 (PLOS Biology, 2025).
Some of the results follow.

system: T1, CTL2-GFP (C. trachomatis L2/434/Bu, GFP-expressing); parameters: species or system HeLa; Intracellular C. trachomatis growth in HeLa cells, bulk GFP fluorescence relative to DMSO; settings: bulk GFP, single well; 28.5 h, 10 µM; inhibitor
T1 construct: L2/434/Bu, GFP-expressing

SMILES	% of control remaining
CCOC(=O)c1cn(CC2(CO)CCC2)cc(Oc2ccccc2)c1=O [CBK306698]	123.317%
Cc1cc(-c2sc(N)nc2-c2cccs2)on1 [CBK284492]	152.262%
Clc1ccc(CN2CCc3ccccc3C2)cc1Cl [CBK126395]	83.5785%
COc1ccc(/C=N/NC(=O)c2cc[nH]n2)cc1COc1ccc(Cl)cc1Cl [CBK263708]	132.794%
CC(C)CCCC(=O)n1ccn(CCCOc2ccccc2)c1=O [CBK106561]	83.6406%
COc1ccc(-c2nc(-c3cc4ccccc4s3)cnc2N)cc1OC [CBK063963]	88.7713%
COc1cc(CNCc2ccccn2)ccc1OCc1ccccc1C [CBK270108C]	97.9249%
CCCCN(C)c1nccnc1-c1ccncc1 [CBK037655]	113.45%
CCCN(CC1CC1)C1CCc2cccc(C(N)=O)c2C1 (stereo not shown) [CBK016579]	130.871%
O=[N+]([O-])c1cc(C(F)(F)F)ccc1NCCCNc1nc(N2CCOCC2)nc2ccccc12 [CBK266567]	108.734%
CCOc1ccc(S(=O)(=O)N2CCN(CCCC#N)CC2)c2cccnc12 [CBK063046]	104.723%
CCc1c(C)nc2ccccc2c1SCCOC(=O)Nc1ccccc1 [CBK155466T]	105.875%
C=C(C)Cn1c(SC(C)C)nnc1-c1ccccc1Cl [CBK200079]	86.8175%
COc1ccc(-c2ccc(C#N)c(SCc3ccncc3)n2)cc1 [CBK269883]	70.0818%
CC1CCN(Cc2ccc(-c3nnn(CC(=O)NCc4ccc(NS(C)(=O)=O)cc4)n3)cc2)CC1 [CBK144588C]	108.59%
COc1ccc(CC(=O)Nc2nc(OC)cnc2/C=C\c2ccccc2)cc1 [CBK145224]	124.52%
Nc1nc2c([C@@H]3O[C@H](CO)[C@H](O)C3O)c[nH]c2c(=O)[nH]1 (stereo partly shown) [CBK201292]	106.523%
Cc1ccccc1-c1nnc2n1CCCN2 [CBK200089]	115.524%
CCOC(=O)c1c(NC(=O)CC2Sc3ccccc3NC2=O)sc(C)c1C (stereo not shown) [CBK263349]	100%
COc1cccc(CN2CCN(C(=O)c3ccco3)CC2)c1OC [CBK074380]	110.947%
O=C(c1ccccc1F)N1C[C@H](c2ccsc2)[C@H]2CN(Cc3cccc(F)c3)CC[C@H]21 [CBK285660]	77.6304%
CC(=O)Cc1nc2ccccc2nc1O [CBK089805]	137.565%
COc1ccccc1OCc1ccccc1 [CBK002814]	118.238%
CC(=O)c1ccc(NC(=O)N[C@H]2CCN3C(=O)[C@H]4CCCN4C(=O)[C@H]23)cc1 [CBK289228]	135.358%
CC(C)n1c(=O)n(CC(=O)N2CCc3ccccc32)c2cccnc21 [CBK283855]	109.222%
Cc1ccc2c(c1)c(C(=O)N1CCn3nc(CO)cc3C1)nn2C [CBK307134]	132.9%

10 of these compounds, reformatted:
SMILES | % of control remaining
Clc1ccc(CN2CCc3ccccc3C2)cc1Cl [CBK126395] | 83.5785%
COc1cc(CNCc2ccccn2)ccc1OCc1ccccc1C [CBK270108C] | 97.9249%
CCOc1ccc(S(=O)(=O)N2CCN(CCCC#N)CC2)c2cccnc12 [CBK063046] | 104.723%
CCc1c(C)nc2ccccc2c1SCCOC(=O)Nc1ccccc1 [CBK155466T] | 105.875%
COc1ccc(-c2ccc(C#N)c(SCc3ccncc3)n2)cc1 [CBK269883] | 70.0818%
COc1ccc(CC(=O)Nc2nc(OC)cnc2/C=C\c2ccccc2)cc1 [CBK145224] | 124.52%
Nc1nc2c([C@@H]3O[C@H](CO)[C@H](O)C3O)c[nH]c2c(=O)[nH]1 (stereo partly shown) [CBK201292] | 106.523%
CCOC(=O)c1c(NC(=O)CC2Sc3ccccc3NC2=O)sc(C)c1C (stereo not shown) [CBK263349] | 100%
CC(=O)Cc1nc2ccccc2nc1O [CBK089805] | 137.565%
Cc1ccc2c(c1)c(C(=O)N1CCn3nc(CO)cc3C1)nn2C [CBK307134] | 132.9%

The list goes on.

SMILES	% of control remaining
CC(C)S(=O)(=O)n1ccn(-c2cccc(C(F)(F)F)c2)c1=O [CBK106577]	152.526%
Cc1nccn1CC1(O)CCN(CC2=CCC3CC2C3(C)C)CC1 (stereo not shown) [CBK284981]	133.825%
CCN1CC2(CCN(CC(N)=O)CC2)c2ccccc21 [CBK131485]	142.285%
O=C(CN1CC[C@H]2NC(=O)COc3ccccc3CCCC[C@@H]2C1)NCc1ccccn1 [CBK292046]	139.91%
COc1ccc(C(=O)[C@@H]2CCCN(C(=O)OC(C)(C)C)C2)cc1 [CBK284308]	88.9284%
Cc1cccc2cc(CN(Cc3cccnc3)C(=O)Nc3ccccc3Cl)c(=O)[nH]c12 [CBK108869]	88.7373%
O=C(N[C@H]1CCN2C(=O)N(c3cccc4nsnc34)C(=O)[C@@H]2C1)c1cccs1 [CBK289543]	118.54%
Cc1nn(CCC#N)c(C)c1CCC(=O)NCc1cn2ccccc2n1 [CBK304540]	112.103%
Cc1ccc(C(=O)O)cc1S(=O)(=O)N1CCC(C(=O)O)CC1 [CBK267327]	149.328%
Cc1nc2sccn2c1CN(CCCN(C)C)Cc1ccco1 [CBK283199]	116.032%
CCc1cc2c(NCc3ccccc3)ncnc2s1 [CBK057944]	111.061%
COc1cccc(CN2CCN(S(=O)(=O)c3ccccc3[N+](=O)[O-])CC2)c1OC [CBK264162]	100%
COc1ccc2[nH]cc(CCNC(=O)c3cncnc3)c2c1 [CBK122720]	132.37%
Cc1noc(C)c1NC(=O)c1cc2ccccc2[nH]1 [CBK200303]	179.788%
Cc1nc(NC(=O)Cn2c3c(c4ccccc42)CCC3)nn1C [CBK281377]	141.624%
O=C(O)CNS(=O)(=O)c1ccc(F)cc1 [CBK034464]	83.5709%
Cc1nc(O)cc(C2CCN(C(=O)c3scc4c3CCCC4)CC2)n1 [CBK307452]	135.941%
Cc1noc(C)c1C(=O)N(C)Cc1cc(-c2ccncc2)no1 [CBK306677]	108.02%
Cc1cccc(Cn2nc(C)c(NC(=O)c3ccncc3)c2C)c1 [CBK270126]	109.749%
Cc1cc(C(F)(F)F)nc(CCNC(=O)N(Cc2ccsc2)C2CC2)n1 [CBK307468]	108.325%
CS(=O)(=O)N1CCN(C2CCN(Cc3ccccc3)CC2)CC1 [CBK263485]	100%
COc1ccc(Oc2cncc(OC3CCN(CCc4ccc(F)cc4)C3)n2)cc1OC (stereo not shown) [CBK084409]	113.916%
NC(=O)CN1CC2(CCN(C(=O)OCc3ccccc3)CC2)c2ccccc21 [CBK116309]	144.11%
CCn1c(S)nnc1CNC(=O)c1ccc(Cl)cc1Cl [CBK267152]	171.391%
Cc1ccnn1CCC(=O)N1CCCCC1c1nc2ccccc2[nH]1 (stereo not shown) [CBK282374]	108.897%
COc1ccc(-c2cnc(N)c(N[C@H](C)c3ccccc3)n2)c(OC)c1OC [CBK063747]	103.867%
